Source: article PMC11711762
These are yes or no findings as the source states them, for the method shown. Binding seen in cells or lysates may run through a third protein. Some entries that bind do so weakly or less than the wild type. Sequences can lack the tags named with a protein.

Protein sequences, listed by entry. Tags and fused reporters are not part of them. Lines headed by an entry give the natural chain unless they say otherwise; changes in a name come on top.
UniProt Q9Z0U4: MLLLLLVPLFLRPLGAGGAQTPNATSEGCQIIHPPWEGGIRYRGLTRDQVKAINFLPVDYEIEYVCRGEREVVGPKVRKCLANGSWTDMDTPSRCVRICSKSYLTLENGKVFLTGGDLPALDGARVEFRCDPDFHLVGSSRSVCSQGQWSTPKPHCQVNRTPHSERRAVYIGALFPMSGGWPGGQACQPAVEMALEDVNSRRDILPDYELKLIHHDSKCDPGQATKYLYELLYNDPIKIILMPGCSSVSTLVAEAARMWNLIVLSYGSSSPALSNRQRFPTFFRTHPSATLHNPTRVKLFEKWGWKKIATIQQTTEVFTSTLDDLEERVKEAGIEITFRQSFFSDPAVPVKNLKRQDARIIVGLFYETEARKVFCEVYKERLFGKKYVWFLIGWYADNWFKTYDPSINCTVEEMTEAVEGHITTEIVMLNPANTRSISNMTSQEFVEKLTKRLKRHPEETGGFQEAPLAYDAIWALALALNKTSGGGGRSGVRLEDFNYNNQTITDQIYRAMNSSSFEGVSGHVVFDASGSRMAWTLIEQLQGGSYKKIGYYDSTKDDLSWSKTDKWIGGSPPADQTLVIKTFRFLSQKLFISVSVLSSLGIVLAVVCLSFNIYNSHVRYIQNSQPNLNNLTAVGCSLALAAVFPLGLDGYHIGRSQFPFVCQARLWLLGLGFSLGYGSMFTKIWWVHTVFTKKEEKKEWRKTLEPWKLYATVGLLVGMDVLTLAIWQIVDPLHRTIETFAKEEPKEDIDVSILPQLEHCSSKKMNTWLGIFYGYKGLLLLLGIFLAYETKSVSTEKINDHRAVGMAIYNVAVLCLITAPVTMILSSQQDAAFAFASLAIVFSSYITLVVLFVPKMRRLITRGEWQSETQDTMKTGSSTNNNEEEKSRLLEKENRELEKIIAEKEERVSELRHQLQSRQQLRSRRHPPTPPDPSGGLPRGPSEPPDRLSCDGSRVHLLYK

Target: GABAB receptor heterodimer (HA-tagged GABAB1a and GABAB2) expressed in HEK-293 cells (UniProt Q9Z0U4)
Experiment: proximity ligation; in situ PLA (Duolink II) on fixed, permeabilised HEK-293 cells co-expressing GABAB1/GABAB2/MARCH1; antibodies against MARCH1 and GABAB1 or GABAB2; cells without MARCH1 as control for non-specific signal

binding: binds
B1: EYFP-MARCH1 (membrane-associated RING CH-type finger 1), wildtype (enzyme, UniProt Q8TCQ1 1-289)
chain: MLGWCEAIARNPHRIPNNTRTPEISGDLADASQTSTLNEKSPGRSASRSSNISKASSPTTGTAPRSQSRLSVCPSTQDICRICHCEGDEESPLITPCRCTGTLRFVHQSCLHQWIKSSDTRCCELCKYDFIMETKLKPLRKWEKLQMTTSERRKIFCSVTFHVIAITCVVWSLYVLIDRTAEEIKQGNDNGVLEWPFWTKLVVVAIGFTGGLVFMYVQCKVYVQLWRRLKAYNRVIFVQNCPDTAKKLEKNFSCNVNTDIKDAVVVPVPQTGANSLPSAEGGPPEVVSV
